Experimental data as given in patent US12696899B2, “Microbiocidal 2-acylamino-thiazole-4-carboxamide derivatives” (SYNGENTA CROP PROTECTION AG, priority 2018, dated 2026).
Some entries share one result that the patent states for a list of compounds.

Experiments:
Assay type in all cases: cell-based
Conditions in all cases: "at ppm" (figure not given); liquid culture; compared to untreated control
[1] = test system: Botryotinia fuckeliana (Botrytis cinerea); assay: Example B2 Botryotinia fuckeliana (Botrytis cinerea)/liquid culture (gray mould)
[2] = test system: Monographella nivalis (Microdochium nivale); assay: Example B8 Monographella nivalis (Microdochium nivale)/liquid culture (foot rot cereals)
[3] = test system: Glomerella lagenarium (Colletotrichum lagenarium); assay: Example B3 Glomerella lagenarium (Colletotrichum lagenarium)/liquid culture (anthracnose)
[4] = test system: Sclerotinia sclerotiorum; assay: Example B16 Sclerotinia sclerotiorum/liquid culture (cottony rot)

| Compound | control of Botryotinia fuckeliana [1] | further results |
| --- | --- | --- |
| COCC(=O)N(c1cc(F)nc(F)c1)c1nc(C(=O)NC2CCC2(C)C)c(C)s1 (centres unmarked) [I.b.600, 2-[(2,6-difluoro-4-pyridyl)-(2-methoxyacetyl)amino]-N-(2,2-dimethylcyclobutyl)-5-methyl-thiazole-4-carboxamide] | at least 80% |  |
| Cc1sc(N(C=O)c2cc(F)nc(F)c2)nc1C(=O)NC1CCC1(C)C (centres unmarked) [I.b.595, 2-[(2,6-difluoro-4-pyridyl)-formyl-amino]-N-(2,2-dimethylcyclobutyl)-5-methyl-thiazole-4-carboxamide] | at least 80% |  |
| COCC(=O)N(c1cc(F)nc(F)c1)c1nc(C(=O)NC2CCC23CCCC3)c(C)s1 (centres unmarked) [I.c.600, 2-[(2,6-difluoro-4-pyridyl)-(2-methoxyacetyl)amino]-5-methyl-N-spiro[3.4]octan-3-yl-thiazole-4-carboxamide] |  | control of Monographella nivalis [2]: at least 80%; control of Glomerella lagenarium [3]: at least 80% |
| Cc1sc(N(C(=O)COCc2ccccc2)c2cc(F)nc(F)c2)nc1C(=O)NC1CCC1(C)C (centres unmarked) [I.b.818, 2-[(2-benzyloxyacetyl)-(2,6-difluoro-4-pyridyl)amino]-N-(2,2-dimethylcyclobutyl)-5-methyl-thiazole-4-carboxamide] | at least 80% |  |
| Cc1sc(N(C(=O)c2ccccc2)c2cc(F)nc(F)c2)nc1C(=O)NC1CCC1(C)C (centres unmarked) [I.b.613, 2-[benzoyl-(2,6-difluoro-4-pyridyl)amino]-N-(2,2-dimethylcyclobutyl)-5-methyl-thiazole-4-carboxamide] | at least 80% |  |
| COC(=O)CC(=O)N(c1cc(F)nc(F)c1)c1nc(C(=O)NC2CCC2(C)C)c(C)s1 (centres unmarked) [I.b.607, methyl 3-[(2,6-difluoro-4-pyridyl)-[4-[(2,2-dimethylcyclobutyl)carbamoyl]-5-methyl-thiazol-2-yl]amino]-3-oxo-propanoate] |  | control of Sclerotinia sclerotiorum [4]: at least 80% |
| CCOC(=O)C(=O)N(c1cc(F)nc(F)c1)c1nc(C(=O)NC2CCC2(C)C)c(C)s1 (centres unmarked) [I.b.612, ethyl 2-[(2,6-difluoro-4-pyridyl)-[4-[(2,2-dimethylcyclobutyl)carbamoyl]-5-methyl-thiazol-2-yl]amino]-2-oxo-acetate] | at least 80% | control of Sclerotinia sclerotiorum [4]: at least 80% |
| CC(=O)N(c1cc(F)nc(F)c1)c1nc(C(=O)NC2CCC2(C)C)c(C)s1 (centres unmarked) [I.b.596, 2-[acetyl-(2,6-difluoro-4-pyridyl)amino]-N-(2,2-dimethylcyclobutyl)-5-methyl-thiazole-4-carboxamide] | at least 80% |  |
| CCOCC(=O)N(c1cc(F)nc(F)c1)c1nc(C(=O)NC2CCC2(C)C)c(C)s1 (centres unmarked) [I.b.815, 2-[(2,6-difluoro-4-pyridyl)-(2-ethoxyacetyl)amino]-N-(2,2-dimethylcyclobutyl)-5-methyl-thiazole-4-carboxamide] | at least 80% |  |
